Assay results published in PubChem BioAssay AID493014 (National Center for Advancing Translational Sciences (NCATS), 2011).
Where “and” joins values, the source holds several entries; their conditions need not be identical. Equal entries are not always repeated. Some of the results follow. The main result of the screen is listed elsewhere. These columns were measured beside it and carry no call. The list favours compounds with an active or inconclusive main result. The note in brackets gives the kind of curve behind each potency; many fits are weak.

Assay: qHTS Assay to Find Inhibitors of Chronic Active B-Cell Receptor Signaling
Settings: ABC-DLBCL IkBa-CBG/CBR reporter, luminescence ratio (green luciferase fused to IkBa over red control in TMD8 lymphoma cells), 4 h
In short: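 Doxycycline induced both beetle luciferases in TMD8 lymphoma cells; IKK-driven degradation limits the IkappaBalpha-fused green signal, while red luminescence normalises for cell number and nonspecific effects. Compounds tested up to 46 uM, 4 hrs.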

[1] = measured here: CBR red luminescence, cell number

Compound	AC50 [1]	AC50 (measured here: IkBa-CBG green luminescence)
O=C(NCc1cccc(C(F)(F)F)c1)C1CC(c2ccc(C(F)(F)F)cc2)=NO1 (stereo not drawn)	10 µM [falling, partial curve, poor fit]	–
CCCOc1ccc(C(=O)CCC(=O)Nc2ccc(N3CCN(C)CC3)cc2)cc1	0.116 µM [rising, full curve, poor fit]	–
Cc1nc2ccc(Cl)cc2nc(C)/c1=N\O	6.31 µM [rising, single point]	–
Cc1cc(C)cc(N(CCC#N)C(=O)CSc2ncnc3sccc23)c1	4.11 µM [rising, partial curve, poor fit]	–
O=C(CCS(=O)(=O)Cc1cccc(Cl)c1)NCCc1ccccc1	6.31 µM [falling, single point]	–
Cc1noc(C)c1COC(=O)CCc1nc2ccccc2s1	35.5 µM [rising, partial curve, poor fit]	–
O=C(Nc1nc(=O)n(C(=O)C2CC2)s1)c1ccccc1	1.46 µM [rising, partial curve, poor fit]	–
O=C(N/N=C/C(Br)=C/c1ccccc1)c1cccs1	14.1 µM [falling, partial curve, poor fit]	–
COc1ccc2c(-c3ccccc3)cc(SCC(=O)N(C)C3CCS(=O)(=O)C3)nc2c1 (stereo not drawn)	29.1 µM [falling, single point]	–
COCC(=O)N(Cc1nc2ccccc2c(=O)[nH]1)Cc1cccs1	11.6 µM [rising, partial curve, poor fit]	–
Fc1cccc2sc(Nc3nc4ccccc4s3)nc12	1.64 µM [rising, partial curve, poor fit]	–
CC(=O)n1cc([C@H]2C=C(C(=O)Nc3ccccc3)O[C@@H](OCCCCO)C2)c2ccccc21	11.2 µM [falling, partial curve, poor fit]	–
COc1cc(C(C(=O)NC2CCCC2)N(C(=O)Cc2cccs2)C2CC2)cc(OC)c1OC (stereo not drawn)	35.5 µM [rising, partial curve, poor fit]	–
COc1ccc(NC(=O)C(=S)NC2CCCCC2)cc1	11.2 µM [falling, partial curve, poor fit]	–
Cc1oc(-c2cccc(Cl)c2)nc1CSCC(=O)O	6.51 nM [falling, full curve, poor fit] and 10 µM [falling, partial curve]	0.013 µM [rising, full curve, poor fit]
Cn1c(-c2ccccc2)cnc1SCC(=O)N1CCCCC1	3.66 µM [rising, partial curve, poor fit]	–
CC(C)(C)C(=O)OCCNc1nc(-c2ccccc2)nc2ccccc12	29.1 µM [falling, single point]	–

3 entries out of the list, sorted by length of the SMILES, largest number first:
Compound	AC50 [1]	AC50 (measured here: IkBa-CBG green luminescence)
O=C(CCS(=O)(=O)Cc1cccc(Cl)c1)NCCc1ccccc1	6.31 µM [falling, single point]	–
O=C(N/N=C/C(Br)=C/c1ccccc1)c1cccs1	14.1 µM [falling, partial curve, poor fit]	–
Cc1noc(C)c1COC(=O)CCc1nc2ccccc2s1	35.5 µM [rising, partial curve, poor fit]	–
